For 62 compounds, cell number change and AC50 results are on record in PubChem BioAssay AID2685 (National Center for Advancing Translational Sciences (NCATS), 2010).

Some of the results follow. Further columns of the screen follow, without active or inactive calls. The list favours compounds with an active or inconclusive main result. The note in brackets gives the kind of curve behind each potency; many fits are weak.

This experiment can be described thus: qHTS Assay for Lipid Storage Modulators in Drosophila S3 Cells.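 As to cell number change: cells counted by Cell Tracker Red CMTPX staining in the red channel.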 The conditions noted are these: BODIPY lipid droplet fluorescence, 18-24 h; for cell number change: measured here: cell count max response, cells fed with added oleic acid. The method in brief:
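Drosophila S3 cells got compounds at several concentrations plus oleic acid (400 uM solution). Laser-scanning cytometry with 488 nm excitation read lipid droplets at 500-530 nm and cells at 575-640 nm. Percent activity was relative to 20 uM Triacsin C.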
On the technique in general: qHTS replaces the single test concentration by a dilution series.

The mark [1] stands for this setting: measured here: lipid fluorescence (Fed channel) AC50, cells fed with added oleic acid.
[2] abbreviates: measured here: cell number channel AC50, cells fed with added oleic acid.

As a reminder, the AC50 is the concentration at which the activity in the assay is half-maximal. Read a low AC50 as greater potency. For `CCCn1c(N)c(C(=O)CSc2nnc3n2CCCCC3)c(=O)[nH]c1=O`, the cell number change was 16.6%. Moreover, under setting [1], the AC50 is 9.2 µM [rising, partial curve, poor fit].

Take `CCC(=O)N1CCN(c2ccc(NC(=O)c3ccc(C#N)cc3F)cc2Cl)CC1`: the cell number change came out at 3.73%. Besides, under setting [2], the AC50 was 3.26 µM [rising, partial curve]. Take `CCc1ccc(-c2cc(C(=O)NN3CCOCC3)c3ccccc3n2)cc1`: the cell number change turned out to be 0.388%. The AC50 under setting [1] was 0.366 µM [rising, partial curve]. `Cc1ccc(-n2nnnc2SCC(=O)Nc2ccccc2N2CCCCC2)cc1C`: the cell number change is -27.4%. Also, under setting [1], the AC50 is 16.4 µM [falling, partial curve]. As for `COC(=O)c1cccc2c1-c1ccccc1/C2=N/O`, the cell number change is -58.9%. The AC50 under setting [2] was 29.1 µM [falling, single point]. Besides, under setting [1], the AC50 was 18.4 µM [falling, single point].

As for `CCCNC(=O)NC(=O)CSc1nnc(C)n1N`, the cell number change is -31.9%. Moreover, the AC50 under setting [2] was 0.0058 µM [falling, full curve, poor fit]. With `CCCOc1ccc(/C=N/Nc2cc(N3CCOCC3)ncn2)c(O)c1`, the cell number change was -23.9%. In the case of `CCn1cc(C(=O)NCCN(CC(C)C)CC(C)C)c(=O)c2cc(S(=O)(=O)N3CCOCC3)ccc21`, the AC50 under setting [1] is 9.2 µM [falling, partial curve]. Take `CN(C)S(=O)(=O)c1ccc(NC(=O)COc2cccc3c2OC(C)(C)C3)cc1`: the cell number change amounted to 71.9%. In addition, under setting [2], the AC50 is 29.1 µM [rising, single point].

As to `COc1ccc(NC(=S)N/N=C2/CCCc3c(C)cc(C)cc32)cc1`, the cell number change is 43.9%. Also, the concentration at half-maximal activity (AC50) under setting [2] is 0.411 µM [rising, full curve]. Also, under setting [1], the AC50 was 0.651 µM [rising, full curve]. In the case of `Cc1ccc(CN2CCc3c(OCC(=O)Nc4cc(C)ccc4C)cccc3C2=O)cc1`, the cell number change came to 8.31%. Turning to `Cn1c(SCC(=O)c2ccc3c(c2)OCO3)nnc1-c1ccccn1`, the cell number change is -13.4%. In addition, the AC50 under setting [1] was 1.46 µM [rising, partial curve, poor fit]. As to `CCC(C)(C)n1nnnc1C(c1cc2cc(OC)c(OC)cc2[nH]c1=O)N1CCc2ccccc21` (centres undefined), the cell number change is -4.27%. On to `CCOc1ccccc1NC(=O)Cn1nnc(C(=O)Nc2ccccc2Cl)c1N`, for which the AC50 under setting [2] is 0.326 µM [rising, partial curve, poor fit].

As to `CC(=O)Nc1ccc(S(=O)(=O)NCC2CCC(C(=O)NCCC(C)C)CC2)cc1` (centres undefined), the cell number change was found to be 35.1%. Further, under setting [2], the half-maximal activity concentration (AC50) was 0.116 µM [rising, full curve, poor fit]. For the compound `Cc1nn(Cc2c(F)c(F)c(F)c(F)c2F)c(C)c1NC(=O)c1nn(C)c(C)c1Br`, the cell number change worked out at 39.7%. The AC50 under setting [2] is 7.31 µM [rising, partial curve]. The half-maximal activity concentration (AC50) under setting [1] is 2.59 µM [rising, full curve]. On to `O=C(c1ccccc1)N1CCN(CC(O)COCC2CC=CCC2)CC1` (centres undefined), for which the cell number change is -0.807%. The AC50 under setting [1] is 29.1 µM [rising, single point]. In the case of `COc1ccc(Cl)cc1N(CC(=O)NCC(C)C)S(=O)(=O)c1ccc(C)c([N+](=O)[O-])c1`, the cell number change was determined as 4.49%. Also, the AC50 under setting [1] was 0.103 µM [falling, single point]. With `COc1ccc(/C=C2\SC(=S)N(CCC(=O)Nc3ccc(C(=O)O)cc3)C2=O)cc1`, the cell number change was -13.9%. Also, the AC50 under setting [1] is 16.4 µM [falling, single point].

Take `FC(F)Sc1nc2ccccc2[nH]1`: the cell number change was -3.98%.

Regarding `Oc1ccc(/C=N/NC2=NCCCCC2)cc1`, the AC50 under setting [1] is 14.6 µM [falling, partial curve]. `COc1ccc(C(=O)N2CCN(C)C(C)C2)cc1OC1CCN(C(C)=O)CC1` (centres undefined): the cell number change came out at 3.52%. Moreover, the AC50 under setting [2] was 2.59 µM [rising, partial curve, poor fit].

In the case of `O=c1cc(CN2CCCc3ccccc32)nc2sccn12`, the cell number change is 78.4%. Further, the AC50 under setting [2] is 29.1 µM [rising, single point]. Moreover, the AC50 under setting [1] is 16.4 µM [rising, partial curve]. Consider `CC(C)(C)c1ccc(COn2ccnc2)cc1`, for which the cell number change is -33.8%. In addition, under setting [2], the AC50 was 29.1 µM [falling, single point]. As to `Cc1ccc(S(=O)(=O)ON2C(=O)c3ccccc3C2=O)c(C)c1`, the cell number change was -38.1%. Also, the AC50 under setting [2] was 20.6 µM [falling, single point]. Under setting [1], the AC50 is 14.6 µM [falling, partial curve]. For `COc1ccc(Cl)cc1NC(=S)N1CCCC1`, the cell number change amounted to 6.3%. In addition, the AC50 under setting [2] is 0.291 µM [falling, single point]. The AC50 under setting [1] is 0.326 µM [falling, partial curve, poor fit]. For `CC(C)CC(C(=O)OCC(=O)Nc1ncc(Cl)cc1Cl)N1C(=O)c2ccccc2C1=O` (centres undefined), the cell number change was -34.5%. In addition, the AC50 under setting [2] is 13 µM [falling, partial curve].

Turning to `CCCc1[nH]nc2c1C(c1ccncc1)C(C#N)=C(N)O2` (centres undefined), the cell number change was -10.9%. In addition, under setting [1], the AC50 was 20.6 µM [falling, single point]. In the case of `O=C(Cc1ccc(Cl)cc1)Nc1ccncc1`, the cell number change was -50.6%. In addition, under setting [2], the AC50 was 2.31 µM [falling, full curve]. Besides, the AC50 under setting [1] was 2.91 µM [falling, partial curve]. In the case of `O=C(CCSCCc1ccccn1)Nc1ccc(Br)cn1`, the cell number change stood at 16.1%. In addition, the AC50 under setting [1] was 3.66 µM [rising, single point]. Regarding `CCN(CC)CCCN(Cc1cc2cc(OC)ccc2[nH]c1=O)C(=O)Nc1ccccc1`, the cell number change came to 9.44%. Also, under setting [1], the AC50 was 13 µM [rising, partial curve]. In the case of `CN1CCN(S(=O)(=O)c2cccc(C(=O)Oc3cccc(Br)c3)c2)CC1`, the cell number change was -88%. The AC50 under setting [2] is 23.1 µM [falling, partial curve]. For `O=C(COC(=O)c1cc(-c2ccco2)nc2ccccc12)NCc1ccccc1`, the cell number change was -13.6%. The AC50 under setting [1] was 0.58 µM [rising, full curve]. As to `Cc1cc(C(=O)CN2C(=O)NC3(CCCCCC3)C2=O)c(C)n1C`, the cell number change amounted to 1.61%. Same read-out and setting: next, `O=C(O)/C=C/C(=O)Nc1ccccc1C(=O)Nc1ccccc1`: 18.9%.

`CCCCOc1ccccc1C(=O)NCC(=O)O`: the AC50 under setting [2] was 0.206 µM [falling, full curve] and the AC50 under setting [1] is 0.184 µM [falling, full curve, poor fit].

For `CCC(C)NC(=O)C1CC(c2ccc(OC)cc2)=NO1` (centres undefined), the cell number change is -27.3%.

Take `CCOc1cc2oc(=O)c3c(c2cc1Cl)CCC3`: the cell number change is 140%. Also, the AC50 under setting [2] was 23.1 µM [rising, single point]. Regarding `COc1ccc(C(=O)Nc2sc(C(=O)N(C)C)c(C)c2C#N)cc1[N+](=O)[O-]`, the cell number change is -25%. For the same compound, the AC50 under setting [1] was 23.1 µM [falling, partial curve]. As to `COC(=O)C1=C(C)N(CC2CCCO2)C(=O)C1` (centres undefined), the cell number change was found to be 1.5%. Take `CCC1CCCCN1CCNS(=O)(=O)c1ccc2c(c1)CCN2C(C)=O` (centres undefined): the cell number change is 6.23%. Also, under setting [1], the AC50 is 29.1 µM [falling, single point]. With `C=CCS(=O)(=O)c1nc2ccccc2s1`, the cell number change was -4.88%. The half-maximal activity concentration (AC50) under setting [1] is 29.1 µM [rising, single point].

Regarding `O=C(CCS(=O)(=O)Cc1ccccc1)Nc1nnc(C(F)(F)F)s1`, the cell number change was -32.4%. Further, under setting [2], the concentration at half-maximal activity (AC50) was 0.00411 µM [falling, full curve, poor fit]. Moreover, the AC50 under setting [1] was 0.206 µM [falling, single point]. In the case of `COc1ccc(-c2ccc(SCC(=O)N3CCOCC3)nn2)cc1OC`, the cell number change was -3.61%. Moreover, the concentration at half-maximal activity (AC50) under setting [2] is 0.731 µM [falling, single point]. Also, under setting [1], the AC50 is 4.61 µM [rising, full curve, poor fit].

Turning to `O=C(/C=C/c1cccc([N+](=O)[O-])c1)NCCSCc1ccco1`, the cell number change was -35.6%. Moreover, the AC50 under setting [2] was 1.64 µM [falling, full curve, poor fit]. Moreover, the AC50 under setting [1] is 29.1 µM [falling, single point]. Turning to `CC(C)CSc1n[nH]c(=S)s1`, the cell number change came out at 11.4%. As to `CN1CCCN(C(=O)c2cccc3ccccc23)CC1`, the cell number change came to 26.9%. The AC50 under setting [2] was 0.184 µM [rising, full curve, poor fit]. Consider `COc1ccc(/C=C/C(=O)NC(=S)N2CCN(C)CC2)cc1`, for which the cell number change was -0.331%.

With `COc1ccccc1C(=O)N/N=C(\C)c1ccc(NC(=O)C2CC2)cc1`, the cell number change stood at 60.3%. Under setting [2], the AC50 was 29.1 µM [rising, single point]. Besides, under setting [1], the AC50 was 29.1 µM [rising, single point]. Regarding `O=C(O)C1CCN(c2ccc([N+](=O)[O-])cc2[N+](=O)[O-])CC1`, the cell number change was -14.4%. Also, the AC50 under setting [1] was 3.26 µM [falling, full curve, poor fit]. For `O=C(NCCc1ccccc1Cl)C1CCC(=O)N(C2CCCCCC2)C1` (centres undefined), the cell number change was 18.9%. The concentration at half-maximal activity (AC50) under setting [2] is 1.03 µM [rising, partial curve, poor fit].

As to `OCC[C@@H]1C[C@H](O)[C@@H](O)[C@@]2(OCCc3ccccc32)O1`, the cell number change is 21%. In addition, under setting [1], the AC50 is 6.51 µM [rising, single point]. Turning to `COc1ccc(C(=O)N[C@H](C(=O)Nc2ccc(OC)nc2)C(C)C)cc1`, the cell number change stood at 47%. Further, under setting [2], the AC50 is 3.26 µM [rising, partial curve]. Further, under setting [1], the AC50 was 4.11 µM [rising, partial curve, poor fit]. For the compound `CC1(C)Oc2ccc3ccc(=O)oc3c2/C(=C/NNC(N)=S)C1=O`, the cell number change was -13.9%. The AC50 under setting [1] is 0.58 µM [rising, single point]. Regarding `CCc1cc(=O)[nH]c(SCC(=O)N2CCC(Cc3ccccc3)CC2)n1`, the cell number change turned out to be 75%. The AC50 under setting [2] was 29.1 µM [rising, single point]. Take `CCN(CC(=O)NCc1cccs1)C(=O)c1ccccc1F`: the cell number change is -5.48%. For the compound `Cc1nc2sc3c(c2c(=O)o1)CCCC3`, the AC50 under setting [1] is 20.6 µM [falling, partial curve].

For `CCCn1c(-c2cc(OC)c(OC)c(OC)c2)nc2nc3ccccc3nc21`, the cell number change is -28.1%. The same measure, in the same setting: for `Cc1ccc(NC(=S)NC2CCN(Cc3ccccc3)CC2)cc1` the value was 27.3%. As to `COc1ccccc1N(C)S(=O)(=O)c1ccc(Cl)c(C(=O)NCCCN2CCOCC2)c1`, the cell number change was -1.62%. The AC50 under setting [1] was 20 µM [falling, single point]. For `CC(=O)Nc1ccc(S(=O)(=O)Oc2cccc(N3C(=O)C4CC=CCC4C3=O)c2)cc1` (centres undefined), the cell number change was 72.7%. As to `COc1cccc(C(=O)NC2CCCc3ccccc32)c1OC` (centres undefined), the cell number change was -0.794%. In addition, under setting [2], the AC50 was 0.461 µM [rising, single point]. Also, the AC50 under setting [1] was 7.31 µM [falling, single point].
